These are yes or no findings as the source states them, for the method shown. Binding seen in cells or lysates may run through a third protein. A yes stands for co-enrichment or nearness to the bait. Other partners may have been found.

Protein sequences, listed by entry. Tags and fused reporters are not part of them.
UniProt O95425: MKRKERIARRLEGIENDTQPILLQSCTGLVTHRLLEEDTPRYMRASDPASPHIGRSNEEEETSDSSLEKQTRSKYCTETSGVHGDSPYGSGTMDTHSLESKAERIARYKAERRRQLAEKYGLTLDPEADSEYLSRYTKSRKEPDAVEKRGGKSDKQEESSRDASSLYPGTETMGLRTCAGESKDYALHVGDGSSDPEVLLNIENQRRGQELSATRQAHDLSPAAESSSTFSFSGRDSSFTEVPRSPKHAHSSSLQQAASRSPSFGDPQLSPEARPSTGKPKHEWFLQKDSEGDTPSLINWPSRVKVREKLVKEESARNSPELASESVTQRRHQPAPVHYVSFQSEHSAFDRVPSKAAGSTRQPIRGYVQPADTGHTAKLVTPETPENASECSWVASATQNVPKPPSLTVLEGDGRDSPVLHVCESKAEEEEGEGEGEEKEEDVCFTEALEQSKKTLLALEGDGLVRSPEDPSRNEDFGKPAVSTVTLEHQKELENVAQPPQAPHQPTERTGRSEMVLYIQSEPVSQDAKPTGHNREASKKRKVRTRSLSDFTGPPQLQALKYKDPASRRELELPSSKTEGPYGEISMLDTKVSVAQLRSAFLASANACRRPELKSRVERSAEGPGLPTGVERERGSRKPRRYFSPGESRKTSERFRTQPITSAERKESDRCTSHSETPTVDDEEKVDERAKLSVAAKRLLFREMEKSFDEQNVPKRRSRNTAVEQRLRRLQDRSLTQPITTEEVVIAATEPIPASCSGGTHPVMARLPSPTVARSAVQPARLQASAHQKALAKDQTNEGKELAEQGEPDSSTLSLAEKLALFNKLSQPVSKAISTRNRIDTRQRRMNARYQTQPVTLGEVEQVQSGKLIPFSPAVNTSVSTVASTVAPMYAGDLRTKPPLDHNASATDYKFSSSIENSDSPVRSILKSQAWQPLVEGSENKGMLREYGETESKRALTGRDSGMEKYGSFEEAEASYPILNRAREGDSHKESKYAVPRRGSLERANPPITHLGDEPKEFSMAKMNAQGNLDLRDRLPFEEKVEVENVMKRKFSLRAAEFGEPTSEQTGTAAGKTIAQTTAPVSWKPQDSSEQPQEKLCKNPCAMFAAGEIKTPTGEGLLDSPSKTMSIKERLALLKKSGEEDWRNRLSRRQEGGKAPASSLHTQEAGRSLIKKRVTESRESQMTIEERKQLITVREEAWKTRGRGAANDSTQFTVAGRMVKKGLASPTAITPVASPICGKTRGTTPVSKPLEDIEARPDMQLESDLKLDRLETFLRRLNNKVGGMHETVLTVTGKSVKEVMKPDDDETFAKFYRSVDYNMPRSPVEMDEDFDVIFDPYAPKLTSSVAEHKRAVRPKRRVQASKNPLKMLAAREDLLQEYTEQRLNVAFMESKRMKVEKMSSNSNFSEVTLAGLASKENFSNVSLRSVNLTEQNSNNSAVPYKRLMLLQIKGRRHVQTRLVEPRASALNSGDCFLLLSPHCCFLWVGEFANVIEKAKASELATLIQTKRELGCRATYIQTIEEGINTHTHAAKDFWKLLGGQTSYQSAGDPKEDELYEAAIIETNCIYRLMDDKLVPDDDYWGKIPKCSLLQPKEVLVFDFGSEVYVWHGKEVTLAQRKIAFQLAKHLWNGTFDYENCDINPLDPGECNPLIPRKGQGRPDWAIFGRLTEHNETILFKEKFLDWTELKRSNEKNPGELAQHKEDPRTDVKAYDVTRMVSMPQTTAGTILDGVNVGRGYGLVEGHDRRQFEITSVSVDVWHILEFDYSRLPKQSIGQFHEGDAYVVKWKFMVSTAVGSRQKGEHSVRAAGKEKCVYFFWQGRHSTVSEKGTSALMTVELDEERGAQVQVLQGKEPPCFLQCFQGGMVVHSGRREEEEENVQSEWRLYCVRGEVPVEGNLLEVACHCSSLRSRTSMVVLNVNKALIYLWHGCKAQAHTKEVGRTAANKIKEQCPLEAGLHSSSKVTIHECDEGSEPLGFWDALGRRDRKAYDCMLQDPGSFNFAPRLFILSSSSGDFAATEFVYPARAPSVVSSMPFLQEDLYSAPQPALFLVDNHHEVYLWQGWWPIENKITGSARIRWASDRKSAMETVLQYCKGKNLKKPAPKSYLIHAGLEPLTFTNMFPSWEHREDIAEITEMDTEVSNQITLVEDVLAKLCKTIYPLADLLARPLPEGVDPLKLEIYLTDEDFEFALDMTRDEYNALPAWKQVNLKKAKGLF
UniProt Q03164: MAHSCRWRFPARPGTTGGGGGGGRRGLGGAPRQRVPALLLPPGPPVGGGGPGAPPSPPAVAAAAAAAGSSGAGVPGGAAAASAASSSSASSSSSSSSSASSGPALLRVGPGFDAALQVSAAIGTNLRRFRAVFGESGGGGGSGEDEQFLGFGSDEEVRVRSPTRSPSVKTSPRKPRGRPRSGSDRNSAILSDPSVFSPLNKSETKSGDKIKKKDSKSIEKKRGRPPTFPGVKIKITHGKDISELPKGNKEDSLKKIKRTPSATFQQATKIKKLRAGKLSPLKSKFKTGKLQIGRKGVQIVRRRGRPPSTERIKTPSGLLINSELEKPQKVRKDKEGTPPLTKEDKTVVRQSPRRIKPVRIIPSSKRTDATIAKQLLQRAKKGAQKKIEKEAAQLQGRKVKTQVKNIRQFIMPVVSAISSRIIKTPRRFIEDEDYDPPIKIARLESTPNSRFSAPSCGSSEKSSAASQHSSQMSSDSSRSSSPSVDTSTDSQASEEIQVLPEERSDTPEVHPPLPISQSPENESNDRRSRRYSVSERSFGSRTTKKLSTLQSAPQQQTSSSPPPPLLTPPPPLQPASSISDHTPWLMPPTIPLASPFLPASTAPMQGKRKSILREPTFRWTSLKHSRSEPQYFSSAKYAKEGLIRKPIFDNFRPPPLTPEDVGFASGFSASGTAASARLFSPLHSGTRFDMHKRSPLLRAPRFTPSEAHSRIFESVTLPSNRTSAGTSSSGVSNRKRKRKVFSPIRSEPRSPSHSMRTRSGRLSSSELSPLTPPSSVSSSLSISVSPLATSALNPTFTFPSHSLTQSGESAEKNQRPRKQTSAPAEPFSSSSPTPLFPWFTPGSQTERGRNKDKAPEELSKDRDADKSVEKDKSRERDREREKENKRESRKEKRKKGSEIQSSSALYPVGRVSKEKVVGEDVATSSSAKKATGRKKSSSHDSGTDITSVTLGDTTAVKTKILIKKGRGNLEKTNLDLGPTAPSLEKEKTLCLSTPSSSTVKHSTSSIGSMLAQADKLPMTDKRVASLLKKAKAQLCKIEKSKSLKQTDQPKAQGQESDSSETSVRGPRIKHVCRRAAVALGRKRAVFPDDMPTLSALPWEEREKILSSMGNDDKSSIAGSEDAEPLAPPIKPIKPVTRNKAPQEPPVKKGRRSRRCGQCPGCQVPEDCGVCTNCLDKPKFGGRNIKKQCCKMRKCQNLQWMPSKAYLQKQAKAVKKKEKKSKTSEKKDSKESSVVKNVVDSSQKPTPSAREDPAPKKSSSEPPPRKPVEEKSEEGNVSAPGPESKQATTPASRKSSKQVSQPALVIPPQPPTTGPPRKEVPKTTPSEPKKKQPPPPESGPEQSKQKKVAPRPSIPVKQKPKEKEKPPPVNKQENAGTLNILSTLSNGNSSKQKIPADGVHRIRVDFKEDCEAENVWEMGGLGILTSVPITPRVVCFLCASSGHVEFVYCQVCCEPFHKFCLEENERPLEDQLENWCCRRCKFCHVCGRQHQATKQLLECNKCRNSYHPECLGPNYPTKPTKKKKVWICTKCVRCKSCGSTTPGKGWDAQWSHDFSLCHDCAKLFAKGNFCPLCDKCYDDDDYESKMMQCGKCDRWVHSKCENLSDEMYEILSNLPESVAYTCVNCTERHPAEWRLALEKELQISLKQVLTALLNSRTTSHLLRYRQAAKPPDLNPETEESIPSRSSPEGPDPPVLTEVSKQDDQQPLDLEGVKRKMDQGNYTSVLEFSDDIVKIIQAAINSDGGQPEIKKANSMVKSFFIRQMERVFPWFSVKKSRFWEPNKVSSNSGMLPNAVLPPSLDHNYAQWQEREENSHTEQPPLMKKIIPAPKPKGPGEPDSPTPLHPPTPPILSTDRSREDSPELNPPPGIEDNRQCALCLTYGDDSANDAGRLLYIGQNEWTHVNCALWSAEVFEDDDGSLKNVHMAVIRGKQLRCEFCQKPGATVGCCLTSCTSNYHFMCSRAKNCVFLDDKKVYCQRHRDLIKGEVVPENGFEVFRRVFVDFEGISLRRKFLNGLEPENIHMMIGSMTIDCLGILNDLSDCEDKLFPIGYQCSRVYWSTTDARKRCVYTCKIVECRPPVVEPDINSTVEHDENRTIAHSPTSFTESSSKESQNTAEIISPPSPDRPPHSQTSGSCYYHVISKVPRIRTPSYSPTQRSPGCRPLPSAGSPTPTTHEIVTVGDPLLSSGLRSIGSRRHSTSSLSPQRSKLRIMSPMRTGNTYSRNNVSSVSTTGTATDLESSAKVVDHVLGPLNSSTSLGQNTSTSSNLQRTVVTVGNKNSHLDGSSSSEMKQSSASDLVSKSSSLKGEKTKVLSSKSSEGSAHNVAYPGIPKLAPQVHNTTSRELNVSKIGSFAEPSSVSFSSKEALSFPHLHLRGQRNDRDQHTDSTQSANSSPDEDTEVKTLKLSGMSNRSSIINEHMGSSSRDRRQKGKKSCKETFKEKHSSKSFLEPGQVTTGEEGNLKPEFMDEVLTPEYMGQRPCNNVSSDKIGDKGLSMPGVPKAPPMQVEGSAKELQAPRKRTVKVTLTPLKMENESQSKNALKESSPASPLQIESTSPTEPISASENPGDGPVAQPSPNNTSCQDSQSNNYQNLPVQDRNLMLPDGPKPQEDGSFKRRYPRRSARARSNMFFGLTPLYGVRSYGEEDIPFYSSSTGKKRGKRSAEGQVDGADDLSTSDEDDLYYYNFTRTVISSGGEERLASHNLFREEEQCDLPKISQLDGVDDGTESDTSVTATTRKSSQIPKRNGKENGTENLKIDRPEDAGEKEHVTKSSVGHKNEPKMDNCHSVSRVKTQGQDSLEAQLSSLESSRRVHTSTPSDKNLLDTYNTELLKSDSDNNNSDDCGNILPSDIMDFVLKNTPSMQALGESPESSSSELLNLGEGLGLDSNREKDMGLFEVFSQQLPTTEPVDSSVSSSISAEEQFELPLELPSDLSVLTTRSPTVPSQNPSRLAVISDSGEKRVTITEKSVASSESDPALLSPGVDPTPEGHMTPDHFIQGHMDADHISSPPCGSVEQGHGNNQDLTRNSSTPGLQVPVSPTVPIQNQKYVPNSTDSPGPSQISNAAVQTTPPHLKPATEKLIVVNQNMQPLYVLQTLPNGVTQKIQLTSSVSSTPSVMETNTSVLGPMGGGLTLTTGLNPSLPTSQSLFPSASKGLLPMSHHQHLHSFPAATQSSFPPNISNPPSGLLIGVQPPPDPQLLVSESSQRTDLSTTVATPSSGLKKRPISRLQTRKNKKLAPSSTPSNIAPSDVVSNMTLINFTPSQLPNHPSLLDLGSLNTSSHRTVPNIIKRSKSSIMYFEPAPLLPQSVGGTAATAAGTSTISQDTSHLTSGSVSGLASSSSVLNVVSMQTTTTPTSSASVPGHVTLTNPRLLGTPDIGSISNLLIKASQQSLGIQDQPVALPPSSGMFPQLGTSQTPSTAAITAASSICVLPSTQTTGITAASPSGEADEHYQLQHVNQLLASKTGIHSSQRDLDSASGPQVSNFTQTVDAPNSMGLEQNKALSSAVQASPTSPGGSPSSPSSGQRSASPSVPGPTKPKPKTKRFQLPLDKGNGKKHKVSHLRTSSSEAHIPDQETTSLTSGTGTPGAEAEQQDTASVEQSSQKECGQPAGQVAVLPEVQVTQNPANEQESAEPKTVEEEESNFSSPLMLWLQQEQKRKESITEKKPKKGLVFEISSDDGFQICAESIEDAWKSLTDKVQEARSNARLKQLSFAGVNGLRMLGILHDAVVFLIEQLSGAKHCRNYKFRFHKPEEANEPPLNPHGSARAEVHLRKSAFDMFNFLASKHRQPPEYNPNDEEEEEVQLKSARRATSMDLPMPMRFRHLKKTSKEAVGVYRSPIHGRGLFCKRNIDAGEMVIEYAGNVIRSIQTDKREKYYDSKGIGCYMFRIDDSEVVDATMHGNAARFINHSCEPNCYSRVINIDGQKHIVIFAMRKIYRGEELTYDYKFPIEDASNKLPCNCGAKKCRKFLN

In publication PMC10042811 one finds binding data, which are given here for one substance.

This assay has as its target endogenous SVIL of LFS astrocytes (human (endogenous in LFS iPSC-derived astrocytes)) (UniProt O95425). As to the kind of experiment: affinity purification with mass spectrometry; IP-MS of SVIL-associated proteins in LFS astrocytes.

Take “endogenous MLL1 (lysine methyltransferase 2A) of LFS astrocytes (from UniProt Q03164 1-3969)”: the binding entry is on record as “binds”.
